# Results deposited as PubChem BioAssay AID720505 (Drosophila RNAi Screening Center, 2013).
# Aim: 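Knock-downs that reduce calcium influx once internal stores are emptied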 (primary screen)
# Cell system: Drosophila S2R+ cells
# Reagents: long dsRNA against Drosophila genes
# Conditions: thapsigargin (2 µM) in calcium-free buffer to empty internal stores, then 2 mM calcium added back
# Measured: 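Fluo-4 signal in 384-well plates read on a FLIPR after thapsigargin (2 µM, calcium-free) store depletion and 2 mM calcium add-back; unnormalised mean endpoint per well; screen run twice, selected wells retested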
# Direction: calcium signal and retest calcium signal: higher = more calcium entry after store depletion
# Active means: 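Knock-downs counted as hits when calcium entry dropped relative to STIM1 positive and Rho1 negative controls present on each plate; roughly 1500 genes called, with reductions of differing size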
# Meaning of the calls: active = called as lowering calcium entry; inactive = not called
# The deposit covers about 20,000 reagents; below is a random part of those with a known target gene and a result. Over the whole deposit, about 2,100 (10%) are marked active. 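Raw plate signals without normalisation; calls rest on control-based scores that were not deposited; replicate 2 separates called from uncalled poorly.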 A plus sign joins genes that one reagent is predicted to hit. Not given: the amount of reagent, the time to read-out.
The opening 9 records as a preview:
"calcium signal, replicate 1","calcium signal, replicate 2","retest calcium signal, replicate 1","retest calcium signal, replicate 2",outcome,Target gene,DRSC id
134,181,,,inactive,CG13339,DRSC06373
128,123,,,inactive,CG15117,DRSC06539
69.3,53,,,inactive,CG33278,DRSC10336
118,100,,,inactive,Ir56a (Ionotropic receptor 56a),DRSC05776
98.8,151,,,inactive,CG17075,DRSC00483
91,144,,,inactive,Mpv17 (Mitochondrial inner membrane protein MPV17),DRSC17198
73.9,114,,,inactive,CG14537,DRSC02395
63.7,91.2,,,active,Hipk (Homeodomain interacting protein kinase),DRSC08507
108,152,,,inactive,Hipk (Homeodomain interacting protein kinase),DRSC23155

Results, from the start:
"calcium signal, replicate 1","calcium signal, replicate 2","retest calcium signal, replicate 1","retest calcium signal, replicate 2",outcome,Target gene,DRSC id
134,181,,,inactive,CG13339,DRSC06373
128,123,,,inactive,CG15117,DRSC06539
69.3,53,,,inactive,CG33278,DRSC10336
118,100,,,inactive,Ir56a (Ionotropic receptor 56a),DRSC05776
98.8,151,,,inactive,CG17075,DRSC00483
91,144,,,inactive,Mpv17 (Mitochondrial inner membrane protein MPV17),DRSC17198
73.9,114,,,inactive,CG14537,DRSC02395
63.7,91.2,,,active,Hipk (Homeodomain interacting protein kinase),DRSC08507
108,152,,,inactive,Hipk (Homeodomain interacting protein kinase),DRSC23155
72.5,100,,,active,CG6870,DRSC02998
97.1,122,,,inactive,BBS1 (Bardet-Biedl syndrome 1),DRSC10196
93.1,241,,,inactive,CG14852,DRSC14976
90.5,120,,,inactive,CG8508,DRSC16436
109,183,,,inactive,CG31804,DRSC22728
187,101,,,inactive,CG31870,DRSC21681
70.7,64.8,136,123,active,so (sine oculis),DRSC07693
120,146,,,inactive,so (sine oculis),DRSC23096
88.3,123,,,inactive,TwdlX (TweedleX),DRSC19151
177,150,,,inactive,CG8547,DRSC07211
78.7,127,,,active,scpr-B (SCP-containing protein B),DRSC15200
56.7,144,,,inactive,Alg-2 (Apoptosis-linked gene-2),DRSC07799
70.8,83.9,,,active,CG3909,DRSC14150
81.2,93.2,,,inactive,CG4267,DRSC00102
115,151,,,inactive,CG4267,DRSC00647
140,89.5,,,inactive,Creld (Cysteine rich with EGF like domains),DRSC00308
94.9,195,,,inactive,bgcn (benign gonial cell neoplasm),DRSC04062
139,207,,,inactive,bgcn (benign gonial cell neoplasm),DRSC04063
165,158,,,inactive,CG15549,DRSC15087
68.9,107,6791,86.4,active,Coq5 (Coenzyme Q5),DRSC19849
134,142,,,inactive,Coq5 (Coenzyme Q5),DRSC21371
122,154,,,inactive,nom (numerous disordered muscles),DRSC16389
82.7,114,,,inactive,eve (even skipped),DRSC07614
146,92,,,inactive,shg (shotgun),DRSC04714
92.1,113,,,inactive,CG14628,DRSC18626
79.5,115,,,inactive,CG12398,DRSC19454
93.5,83.6,,,inactive,Nrx-IV (Neurexin IV),DRSC11238
83,157,,,inactive,CR32821 + CR43381 + CR43377 + 1 more,DRSC22544
77.7,139,,,active,MAGE,DRSC12504
139,198,,,inactive,RpLP0-like (Ribosomal protein LP0-like),DRSC06424
145,154,,,inactive,REPTOR-BP (REPTOR-binding partner),DRSC02683
138,89.3,,,inactive,lectin-37Db,DRSC03279
95.5,121,,,inactive,Vha26 (Vacuolar H[+]-ATPase 26kD subunit),DRSC12371
182,123,,,inactive,CCT2 (Chaperonin containing TCP1 subunit 2),DRSC18415
98.1,68.6,,,inactive,CG5114,DRSC10482
84.5,141,,,inactive,Zir (Zizimin-related),DRSC00307
199,130,6075,132,inactive,Muc30E (Mucin 30E),DRSC01101
161,126,,,inactive,CG18545,DRSC15343
107,152,,,inactive,CG8141,DRSC16387
173,119,,,inactive,Ugt36A1 (UDP-glycosyltransferase family 36 member A1),DRSC00748
144,88.9,,,inactive,CG11600,DRSC14332
89.3,147,,,inactive,nmdyn-D6,DRSC20355
171,119,,,inactive,Gr36b (Gustatory receptor 36b),DRSC21637
90.1,157,,,inactive,CG10137,DRSC02014
150,81.3,,,inactive,CG10137,DRSC02015
96.5,133,,,inactive,nkd (naked cuticle),DRSC11376
86.4,74.1,,,inactive,shu (shutdown),DRSC04484
143,199,,,inactive,OtopLb (Otopetrin-like b),DRSC00594
126,244,,,inactive,AttB (Attacin-B),DRSC06734
162,191,,,inactive,CG7806,DRSC03071
164,141,,,inactive,CG30103,DRSC06894
101,69.3,,,inactive,MED1 (Mediator complex subunit 1),DRSC11808
141,119,,,inactive,Efhc1.2 (EF-hand domain containing 1.2),DRSC06027
207,129,,,inactive,CG15676,DRSC04267
161,149,,,inactive,CG15528,DRSC15065
96.7,75,,,inactive,Wnt10 (Wnt oncogene analog 10),DRSC00990
69.2,192,,,active,Wnt10 (Wnt oncogene analog 10),DRSC02797
123,151,,,inactive,CG7272,DRSC10795
229,242,,,inactive,sut2 (sugar transporter 2),DRSC07701
73.9,89,,,active,promL (prominin-like),DRSC08733
249,181,,,inactive,gl (glass),DRSC16957
181,86.3,,,inactive,Cbs (Cystathionine beta-synthase),DRSC20553
173,171,,,inactive,mRpL35 (mitochondrial ribosomal protein L35),DRSC14586
73.4,84,,,active,CG30098,DRSC05605
83.4,111,,,inactive,CG7378,DRSC20041
183,107,,,inactive,CR18217 (pseudo),DRSC21506
124,190,,,inactive,CG17575,DRSC06682
91.4,122,,,inactive,CG4278,DRSC02741
84.6,110,,,inactive,Cpsf100 (Cleavage and polyadenylation specificity factor 100),DRSC14146
140,102,,,inactive,Mccc1 (Methylcrotonoyl-CoA carboxylase 1),DRSC15417
133,211,,,inactive,CG34135 + Nasp + CG11768,DRSC14377
87.2,124,,,inactive,CG34135 + Nasp + CG11768,DRSC16397
102,148,,,inactive,CG34135 + Nasp + CG11768,DRSC23219
121,119,,,inactive,CG8087,DRSC16375
